Record: PubChem BioAssay AID1224826 (NIAID, 2016)

Aim: 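Knock-downs that raise or lower Tnf reporter signal after endotoxin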 (primary screen)
Cells: RAW264.7 G9 macrophages from mouse bearing reporters for p65 (GFP) and the Tnf promoter (mCherry)
Reagents: siRNA pool against mouse genes, 100 nM
Time to read-out: 16 h of LPS stimulation, after 2 days of siRNA transfection
Challenge: bacterial lipopolysaccharide (Salmonella minnesota R595), 10 ng/ml
Read-out: 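Imaged Tnf reporter mCherry in nuclei, minus background, normalised per plate to the median and expressed as robust z-scores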
Scale: Tnf reporter robust z-score: higher = stronger Tnf promoter reporter signal after LPS; Tnf reporter intensity: higher = stronger Tnf promoter reporter signal
Active means: 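Called active when robust z-score is at most -1.3, matching the median of the Tlr4 knock-down control, or over 3; control wells and wells with under 50 cells never active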
Calls: active = Tnf reporter clearly lowered or raised; inactive = no clear change in Tnf reporter
The whole screen tested about 17,000 reagents; shown is a random part of them. Over the whole deposit, about 1,110 (6.6%) were called active. 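Active means lowered or raised reporter signal; replicate intensities are raw and not normalised per plate.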 Entries without a mark were called inactive.

no.	gene knocked down	PubChem SID	Tnf reporter robust z-score	fewer than 50 cells in well	Tnf reporter intensity, replicate 1	Tnf reporter intensity, replicate 2
1	Etv3 (ets variant 3)	SID315470520	-0.15	enough cells in well	224	136
2	Gm10128 (predicted gene 10128)	SID315481975	0.58	enough cells in well	183	90.9
3	Abhd8 (abhydrolase domain containing 8)	SID315472086	-0.89	enough cells in well	114	106
4	Dipk1b (divergent protein kinase domain 1B)	SID315471429	0.01	enough cells in well	230	109
5	Zfp672 (zinc finger protein 672)	SID315481093	-0.51	enough cells in well	173	38.7
6	Zfp672 (zinc finger protein 672)	SID315481094		fewer than 50 cells per well; well left out of calls	156	57.9
7	Rpl28 (ribosomal protein L28)	SID315469016	-0.96	enough cells in well	79.9	92.9
8	Pcdhb12 (protocadherin beta 12)	SID315475995	-0.25	enough cells in well	196	63.8
9	Plcb4 (phospholipase C, beta 4)	SID315468576	-0.14	enough cells in well	232	186
10	Ncbp2as2 (Ncbp2 antisense 2 (head to head))	SID315476532	-0.98	enough cells in well	221	39
11	Pdap1 (PDGFA associated protein 1)	SID315478945	0.12	enough cells in well	234	202
12	Exoc5 (exocyst complex component 5)	SID315476494	-0.48	enough cells in well	128	157
13	Ap3m1 (adaptor-related protein complex 3, mu 1 subunit)	SID315471313	0.57	enough cells in well	219	182
14	Slco6b1	SID315473261		fewer than 50 cells per well; well left out of calls	107	40
15	Fezf2 (Fez family zinc finger 2)	SID315471297	2.25	enough cells in well	209	231
16	Rapgef3 (Rap guanine nucleotide exchange factor (GEF) 3)	SID315478300	0.84	enough cells in well	256	202
17	Srfbp1 (serum response factor binding protein 1)	SID315472908	-0.15	enough cells in well	258	60.1
18	Bkgd (beta-keto-L-gulonate decarboxylase)	SID315474168		fewer than 50 cells per well; well left out of calls	116	24
19	Zmynd10 (zinc finger, MYND domain containing 10)	SID315477016	-0.79	enough cells in well	0	92
20	Mrpl23 (mitochondrial ribosomal protein L23)	SID315469013	1.4	enough cells in well	279	186
21	Eif3a (eukaryotic translation initiation factor 3, subunit A)	SID315466472	-1.3 (active)	enough cells in well	88.8	174
22	Or8k35 (olfactory receptor family 8 subfamily K member 35)	SID315481956	3.15 (active)	enough cells in well	374	320
23	Cyp2c40 (cytochrome P450, family 2, subfamily c, polypeptide 40)	SID315466233	-0.07	enough cells in well	212	140
24	Prdx6b (peroxiredoxin 6B)	SID315481392		fewer than 50 cells per well; well left out of calls	223	71.1
25	Sh3pxd2a (SH3 and PX domains 2A)	SID315466694	-0.12	enough cells in well	263	211
26	Sh3pxd2a (SH3 and PX domains 2A)	SID315481510		fewer than 50 cells per well; well left out of calls	208	156
27	Rab27a (RAB27A, member RAS oncogene family)	SID315465527	0.39	enough cells in well	332	244
28	Kitl (kit ligand)	SID315467918	-0.68	enough cells in well	203	102
29	Ikzf2 (IKAROS family zinc finger 2)	SID315470155	-0.03	enough cells in well	223	233
30	Tceal9 (transcription elongation factor A like 9)	SID315470026	-0.53	enough cells in well	98.5	50.4
31	Or9r7 (olfactory receptor family 9 subfamily R member 7)	SID315480322	-0.21	enough cells in well	59.7	150
32	Dbt (dihydrolipoamide branched chain transacylase E2)	SID315466273	0.6	enough cells in well	289	262
33	Krtap14 (keratin associated protein 14)	SID315470237	-0.61	enough cells in well	174	89.3
34	Or5t16 (olfactory receptor family 5 subfamily T member 16)	SID315480248	-0.73	enough cells in well	167	92
35	Noazfp (nucleolar atypical zinc finger)	SID315470767	0.54	enough cells in well	184	106
36	Dennd1c (DENN domain containing 1C)	SID315474127	-1.2	enough cells in well	114	35.4
37	4930519G04Rik (RIKEN cDNA 4930519G04 gene)	SID315473117		fewer than 50 cells per well; well left out of calls	308	68.6
38	Jpt1 (Jupiter microtubule associated homolog 1)	SID315467236	1.99	enough cells in well	406	277
39	Rfesd (Rieske (Fe-S) domain containing)	SID315478189	-0.09	enough cells in well	253	131
40	Pgcka1 (PDCD10 and GCKIII kinases associated 1)	SID315475272	-1.73 (active)	enough cells in well	124	18.4
41	Serpinb13	SID315479554	-0.04	enough cells in well	244	239
42	Or4c109 (olfactory receptor family 4 subfamily C member 109)	SID315480525	0.35	enough cells in well	205	172
43	Hba-a1 (hemoglobin alpha, adult chain 1)	SID315467148	1.04	enough cells in well	288	284
44	Prnd (prion like protein doppel)	SID315470409	-0.29	enough cells in well	222	174
45	Hspd1 (heat shock protein 1 (chaperonin))	SID315467325	0.69	enough cells in well	270	252
46	Fgr (FGR proto-oncogene, Src family tyrosine kinase)	SID315466682	-0.3	enough cells in well	188	132
47	Itgae (integrin alpha E, epithelial-associated)	SID315467510	0.08	enough cells in well	231	165
48	Rnf41 (ring finger protein 41)	SID315473113	0.16	enough cells in well	140	89.3
49	Phf23 (PHD finger protein 23)	SID315475547	1.76	enough cells in well	223	114
50	Nckap1 (NCK-associated protein 1)	SID315470872	-0.42	enough cells in well	233	171
51	Sptlc1 (serine palmitoyltransferase, long chain base subunit 1)	SID315480787	0	enough cells in well	272	221
52	Rpl22 (ribosomal protein L22)	SID315469012	-1.17	enough cells in well	81	73.9
53	S100b (S100 protein, beta polypeptide, neural)	SID315469085	-0.39	enough cells in well	320	143
54	Dnajb8 (DnaJ heat shock protein family (Hsp40) member B8)	SID315471632	1.85	enough cells in well	250	222
55	Tmem82 (transmembrane protein 82)	SID315477833	-0.06	enough cells in well	190	140
56	Sowaha (sosondowah ankyrin repeat domain family member A)	SID315479364	-0.24	enough cells in well	158	140
57	Tob2 (transducer of ERBB2, 2)	SID315471734	-0.19	enough cells in well	298	74.7
58	Acad11 (acyl-Coenzyme A dehydrogenase family, member 11)	SID315476342	0.67	enough cells in well	204	192

Called active, of those listed so far:
gene knocked down	PubChem SID	Tnf reporter robust z-score	fewer than 50 cells in well	Tnf reporter intensity, replicate 1	Tnf reporter intensity, replicate 2
Eif3a (eukaryotic translation initiation factor 3, subunit A)	SID315466472	-1.3 (active)	enough cells in well	88.8	174
Or8k35 (olfactory receptor family 8 subfamily K member 35)	SID315481956	3.15 (active)	enough cells in well	374	320
Pgcka1 (PDCD10 and GCKIII kinases associated 1)	SID315475272	-1.73 (active)	enough cells in well	124	18.4
